Test results from PubChem BioAssay AID588517 (NMMLSC, 2011).
The whole screen tested about 1,700 compounds, of which about 65 (4%) were called active.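 Rule for the calls: active = fluorescence ratio to DMSO above its plate's cutoff, the plate mean ratio plus 5 SD (cut at about 210% in these data); inactive = the rest.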 The entries are a selection whose mix differs from that of the whole data set.

assay: intrinsic fluorescence of compounds, yeast control strain – S. cerevisiae AD/pABC3, flow cytometry, Cherry Pick1 set, artefact control for antifungal efflux pump inhibitor project, confirmation (AID 588517);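 note: unstained yeast with no Nile Red so the signal is compound autofluorescence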; conditions: S. cerevisiae AD/pABC3, compound fluorescence, at 10 µM, stronger effect = higher value

Row | Structure (SMILES) | fluorescence ratio to DMSO
1 | CCN(CC)c1ccc([N+](=O)[O-])c2cccnc12 | inactive: 107%
2 | O=[N+]([O-])c1cnc2ccc3ccccc3c2c1 | inactive: 94.4%
